# Results published in the supplement of paper PMC8728848.
# Some of the results follow.
# Tests used:
# Test in all cases: glycan array binding signal (z-score within array); higher = stronger binding
# Conditions in all cases: glycan notation: IUPAC condensed, linker removed
# [1] = target: GlcNAc(b1-3)Gal(b1-4)GlcNAc(b1-3)Gal(b1-4)GlcNAc(b1-2)Man(a1-3)[GlcNAc(b1-3)Gal(b1-4)GlcNAc(b1-3)Gal(b1-4)GlcNAc(b1-2)Man(a1-6)]Man(b1-4)GlcNAc(b1-4)[Fuc(a1-6)]GlcNAc
# Outline: (§1)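 Glycan array data were curated from 3228 arrays in the Consortium for Functional Glycomics database and kept only where the protein sequence was available. Glycan names were converted to IUPAC-condensed notation, and columns mapping to the same glycan were averaged. The binding signal is a within-array Z-score, averaged across arrays of the same protein sequence at different concentrations or buffers and across linkers. Negative Z-scores can be read as non-binding.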
# [2] = target: GlcNAc(b1-3)Gal(b1-4)GlcNAc(b1-3)Gal(b1-4)GlcNAc(b1-2)[GlcNAc(b1-3)Gal(b1-4)GlcNAc(b1-3)Gal(b1-4)GlcNAc(b1-6)]Man(a1-6)[GlcNAc(b1-3)Gal(b1-4)GlcNAc(b1-3)Gal(b1-4)GlcNAc(b1-2)Man(a1-3)]Man(b1-4)GlcNAc(b1-4)[Fuc(a1-6)]GlcNAc
# Outline: as §1
# [3] = target: GlcNAc(b1-3)Gal(b1-4)GlcNAc(b1-3)Gal(b1-4)GlcNAc(b1-3)Gal(b1-4)GlcNAc(b1-2)Man(a1-3)[GlcNAc(b1-3)Gal(b1-4)GlcNAc(b1-3)Gal(b1-4)GlcNAc(b1-3)Gal(b1-4)GlcNAc(b1-2)Man(a1-6)]Man(b1-4)GlcNAc(b1-4)GlcNAc
# Outline: as §1
# [4] = target: GlcNAc(b1-3)Gal(b1-4)GlcNAc(b1-3)Gal(b1-4)GlcNAc(b1-3)Gal(b1-4)GlcNAc(b1-2)Man(a1-3)[GlcNAc(b1-3)Gal(b1-4)GlcNAc(b1-3)Gal(b1-4)GlcNAc(b1-3)Gal(b1-4)GlcNAc(b1-2)Man(a1-6)]Man(b1-4)GlcNAc(b1-4)[Fuc(a1-6)]GlcNAc
# Outline: as §1
# [5] = target: GlcNAc(b1-3)Gal(b1-4)GlcNAc(b1-3)Gal(b1-4)GlcNAc(b1-3)Gal(b1-4)GlcNAc(b1-2)[GlcNAc(b1-3)Gal(b1-4)GlcNAc(b1-3)Gal(b1-4)GlcNAc(b1-3)Gal(b1-4)GlcNAc(b1-6)]Man(a1-6)[GlcNAc(b1-3)Gal(b1-4)GlcNAc(b1-3)Gal(b1-4)GlcNAc(b1-3)Gal(b1-4)GlcNAc(b1-2)Man(a1-3)]Man(b1-4)GlcNAc(b1-4)[Fuc(a1-6)]GlcNAc
# Outline: as §1
# [6] = target: GlcNAc(b1-3)Gal(b1-4)GlcNAc(b1-3)Gal(b1-4)GlcNAc(b1-3)Gal(b1-4)GlcNAc(b1-3)Gal(b1-4)GlcNAc(b1-2)Man(a1-3)[GlcNAc(b1-3)Gal(b1-4)GlcNAc(b1-3)Gal(b1-4)GlcNAc(b1-3)Gal(b1-4)GlcNAc(b1-3)Gal(b1-4)GlcNAc(b1-2)Man(a1-6)]Man(b1-4)GlcNAc(b1-4)GlcNAc
# Outline: as §1
# [7] = target: GlcNAc(b1-3)Gal(b1-4)GlcNAc(b1-3)Gal(b1-4)GlcNAc(b1-3)Gal(b1-4)GlcNAc(b1-3)Gal(b1-4)GlcNAc(b1-2)Man(a1-3)[GlcNAc(b1-3)Gal(b1-4)GlcNAc(b1-3)Gal(b1-4)GlcNAc(b1-3)Gal(b1-4)GlcNAc(b1-3)Gal(b1-4)GlcNAc(b1-2)Man(a1-6)]Man(b1-4)GlcNAc(b1-4)[Fuc(a1-6)]GlcNAc
# Outline: as §1
# [8] = target: GlcNAc(b1-3)Gal(b1-4)GlcNAc(b1-3)Gal(b1-4)GlcNAc(b1-3)Gal(b1-4)GlcNAc(b1-3)Gal(b1-4)GlcNAc(b1-2)[GlcNAc(b1-3)Gal(b1-4)GlcNAc(b1-3)Gal(b1-4)GlcNAc(b1-3)Gal(b1-4)GlcNAc(b1-3)Gal(b1-4)GlcNAc(b1-6)]Man(a1-6)[GlcNAc(b1-3)Gal(b1-4)GlcNAc(b1-3)Gal(b1-4)GlcNAc(b1-3)Gal(b1-4)GlcNAc(b1-3)Gal(b1-4)GlcNAc(b1-2)Man(a1-3)]Man(b1-4)GlcNAc(b1-4)[Fuc(a1-6)]GlcNAc
# Outline: as §1
# [9] = target: GlcNAc(b1-3)Gal(b1-4)GlcNAc(b1-3)Gal(b1-4)GlcNAc(b1-3)GalNAc
# Outline: as §1
# [10] = target: GlcNAc(b1-3)Gal(b1-4)GlcNAc(b1-3)GalNAc
# Outline: as §1
# [11] = target: GlcNAc(b1-3)Gal(b1-4)GlcNAc(b1-3)[GlcNAc(b1-3)Gal(b1-4)GlcNAc(b1-3)]GalNAc
# Outline: as §1
# [12] = target: GlcNAc(b1-3)Gal(b1-4)GlcNAc(b1-6)[Gal(b1-3)]GalNAc
# Outline: as §1
# [13] = target: GlcNAc(b1-3)Gal(b1-4)GlcNAc(b1-6)[GlcNAc(b1-3)Gal(b1-3)]GalNAc
# Outline: as §1
# [14] = target: GlcNAc(b1-3)Gal(b1-4)GlcNAc(b1-6)[GlcNAc(b1-3)]Gal(b1-4)GlcNAc
# Outline: as §1
# GlcNAc(b1-3)GalNAc = target: GlcNAc(b1-3)GalNAc
# Outline: as §1
# GlcNAc(b1-3)Man = target: GlcNAc(b1-3)Man
# Outline: as §1
# [15] = target: GlcNAc(b1-3)[GlcNAc(b1-4)][GlcNAc(b1-6)]GlcNAc
# Outline: as §1
# [16] = target: GlcNAc(b1-3)[GlcNAc(b1-6)]Gal(b1-4)GlcNAc
# Outline: as §1
# [17] = target: GlcNAc(b1-3)[GlcNAc(b1-6)]GalNAc
# Outline: as §1
# [18] = target: GlcNAc(b1-4)Gal(b1-4)GlcNAc
# Outline: as §1
# GlcNAc(b1-4)GlcNAc = target: GlcNAc(b1-4)GlcNAc
# Outline: as §1
# [19] = target: GlcNAc(b1-4)GlcNAc(b1-4)GlcNAc
# Outline: as §1
# [20] = target: GlcNAc(b1-4)GlcNAc(b1-4)GlcNAc(b1-4)GlcNAc(b1-4)GlcNAc
# Outline: as §1
binder,measurement,setting,value
GS7807Q-bfa-507-19-507 (Bacteroides fragilis) (protein) ASCNKFDDLNTNPDAATKVTAPMLATKLILNITQQGSAKNFVYHSMLSKQIAWSENASDEQYNLFGRTDFDGYTILTNCQKMVDAANEGDKDSYAALAKFMKAYKLFYKSLEVGDIPYSDALKGEEGVQKPKYDTQKEVMRQVLEDLEEAYTLFSSGSDFDGDPIFGGDTENWKKTVVAFELKVLTHLCKKDTDADLKVKERFARLVSSGSLMTSNADNFQLVYSNKAGQLYPFYYTQNKHSDYLMMSSVIIDNLKKFNDYRMFYYASPAKAQTDKGIKDSEWDAYLSIDPSDSYSNISVLYGKGEFCLANLRYTRVPEGEPLMRLSYAEQNFILAEGAVRGWISEDASTYYKKGIEASMNFIADNTPDKEEYTHGRTITQEYIQEYLAQPVIQLSGDKEKDLEMILLQRYLASFLQHPYDAYYDYRRTGYPVLPINPSTNLNTEKNKIPTRWMYPEAEFSYNPDNANEAVQRQYNGSDDVNKLMWILQ,glycan array binding signal (z-score),[1],1.07
same,glycan array binding signal (z-score),[2],2.73
same,glycan array binding signal (z-score),[3],-0.806
same,glycan array binding signal (z-score),[4],0.62
same,glycan array binding signal (z-score),[5],0.11
same,glycan array binding signal (z-score),[6],1.83
same,glycan array binding signal (z-score),[7],-0.41
same,glycan array binding signal (z-score),[8],0.964
same,glycan array binding signal (z-score),[9],-0.585
same,glycan array binding signal (z-score),[10],0.273
same,glycan array binding signal (z-score),[11],-0.737
same,glycan array binding signal (z-score),[12],-0.569
same,glycan array binding signal (z-score),[13],1.15
same,glycan array binding signal (z-score),[14],0.947
same,glycan array binding signal (z-score),GlcNAc(b1-3)GalNAc,-0.376
same,glycan array binding signal (z-score),GlcNAc(b1-3)Man,-1.62
same,glycan array binding signal (z-score),[15],-0.667
same,glycan array binding signal (z-score),[16],-0.251
same,glycan array binding signal (z-score),[17],-0.346
same,glycan array binding signal (z-score),[18],-0.737
same,glycan array binding signal (z-score),GlcNAc(b1-4)GlcNAc,-0.323
same,glycan array binding signal (z-score),[19],-0.081
same,glycan array binding signal (z-score),[20],-0.699

# Reformatted: entries from further up.
binder	measurement	setting	value
GS7807Q-bfa-507-19-507 (Bacteroides fragilis) (protein) ASCNKFDDLNTNPDAATKVTAPMLATKLILNITQQGSAKNFVYHSMLSKQIAWSENASDEQYNLFGRTDFDGYTILTNCQKMVDAANEGDKDSYAALAKFMKAYKLFYKSLEVGDIPYSDALKGEEGVQKPKYDTQKEVMRQVLEDLEEAYTLFSSGSDFDGDPIFGGDTENWKKTVVAFELKVLTHLCKKDTDADLKVKERFARLVSSGSLMTSNADNFQLVYSNKAGQLYPFYYTQNKHSDYLMMSSVIIDNLKKFNDYRMFYYASPAKAQTDKGIKDSEWDAYLSIDPSDSYSNISVLYGKGEFCLANLRYTRVPEGEPLMRLSYAEQNFILAEGAVRGWISEDASTYYKKGIEASMNFIADNTPDKEEYTHGRTITQEYIQEYLAQPVIQLSGDKEKDLEMILLQRYLASFLQHPYDAYYDYRRTGYPVLPINPSTNLNTEKNKIPTRWMYPEAEFSYNPDNANEAVQRQYNGSDDVNKLMWILQ	glycan array binding signal (z-score)	[11]	-0.737
same	glycan array binding signal (z-score)	[18]	-0.737
